In the supplement of paper PMC3334620:
Over roughly 33,000 sequences, “E-score (-0.5 to 0.5)” has its median near -0.0059; the highest 2% begin near 0.26. This is one part of the list.

What follows are sequences tested against T1, Cin5 (UniProt P40917) (assay: PBM E-score (8-mer binding enrichment) (E-score (-0.5 to 0.5)); higher = stronger / more preferred TF binding). Conditions: protein concentration: 100 nM; construct: GST-full length.
T1 sequence: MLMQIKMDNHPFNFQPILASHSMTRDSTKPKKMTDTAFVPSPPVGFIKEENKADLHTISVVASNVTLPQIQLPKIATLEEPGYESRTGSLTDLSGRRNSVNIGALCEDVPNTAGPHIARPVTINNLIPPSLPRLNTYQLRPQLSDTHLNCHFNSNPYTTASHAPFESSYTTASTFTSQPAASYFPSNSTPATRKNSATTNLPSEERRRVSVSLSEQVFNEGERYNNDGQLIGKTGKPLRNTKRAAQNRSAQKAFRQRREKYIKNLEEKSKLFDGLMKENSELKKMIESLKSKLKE
Experimental: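 Universal 'all 10-mer' protein binding microarrays (Agilent AMADID 015681) probed with GST-tagged S. cerevisiae TFs (full-length or DBD) made by in vitro transcription/translation (PURExpress), about 100-200 nM. Bound TF was detected with fluorescent anti-GST. Each ungapped 8-mer (which stands for itself and its reverse complement) is scored by the PBM enrichment score (E-score), a modified Wilcoxon-Mann-Whitney statistic from -0.5 to +0.5, computed with the Universal PBM Analysis Suite. Scale: above 0.35 generally sequence-specific binding.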

Compared with ACTCAGCT, ATCTGCAA is lower in “PBM E-score” value: 0.0834 for the first, -0.0484 for the second.

First: CCGACTGC
Second: ACTCTCGC
The “PBM E-score” value of the first is lower: -0.178 for the first, -0.0658 for the second.

Compared with ACTGCGGA, ACCGCGCT is lower in “PBM E-score” value: 0.0415 for the first, -0.03 for the second.

Going from GATCGGGC to CCACGAGC, the “PBM E-score” value falls from -0.0615 to -0.163.

First: ACTTTTAA
Second: AGTTTCCC
The “PBM E-score” value of the first is higher: 0.0259 for the first, -0.145 for the second.

Compared with CGCGAAGA, AGATATGG is higher in “PBM E-score” value: 0.0959 for the first, 0.26 for the second.

Compared with AAAGCCAA, CCCTGAAA is lower in “PBM E-score” value: -0.0212 for the first, -0.105 for the second.

First: CCTGTAAA
Second: ATCTTTGG
The “PBM E-score” value of the first is lower: -0.249 for the first, -0.0304 for the second.

Compared with GATCCTAA, CCAGAGGG is lower in “PBM E-score” value: -0.084 for the first, -0.236 for the second.

First: CTCAACAA
Second: ATTCGAGG
The “PBM E-score” value of the first is higher: 0.197 for the first, -0.188 for the second.

First: GGCAGAAC
Second: CTTGGTAA
The “PBM E-score” value of the first is higher: 0.0879 for the first, 0.00988 for the second.

Compared with CGGTTGGC, GAATCGTC is lower in “PBM E-score” value: 0.00099 for the first, -0.00697 for the second.

First: ATATTACA
Second: AATATAAA
The “PBM E-score” value of the first is lower: 0.209 for the first, 0.249 for the second.

Going from GACATCCC to AGTCTAGC, the “PBM E-score” value falls from 0.115 to -0.149.

First: GCGCTTGA
Second: AAACCTGA
The “PBM E-score” value of the first is higher: 0.155 for the first, 0.135 for the second.

Going from ACTGAAGG to ACGCACGC, the “PBM E-score” value rises from -0.0522 to 0.0945.

Going from CGTAGCCA to CAGTGCAG, the “PBM E-score” value rises from -0.26 to -0.0567.

Compared with CTAGGTGA, AACCATGG is higher in “PBM E-score” value: -0.0642 for the first, -0.0244 for the second.

Compared with AGCCACGG, AGATCGTA is higher in “PBM E-score” value: -0.265 for the first, -0.185 for the second.

First: ATGGTAAT
Second: CGTACCAG
The “PBM E-score” value of the first is higher: 0.131 for the first, -0.133 for the second.

First: AGCCGTCA
Second: TTGGACAA
The “PBM E-score” value of the first is lower: -0.0319 for the first, 0.0284 for the second.

First: ATGTACAT
Second: ACGAACGT
The “PBM E-score” value of the first is higher: 0.205 for the first, 0.0198 for the second.

Compared with CATAGACG, GATACACC is higher in “PBM E-score” value: -0.0191 for the first, 0.143 for the second.

Compared with AGGCCGGA, GAAGTCTC is lower in “PBM E-score” value: -0.198 for the first, -0.202 for the second.

First: CGGAAACA
Second: CGAGGGCC
The “PBM E-score” value of the first is higher: 0.0404 for the first, -0.113 for the second.

First: AAAGGAGG
Second: CAATAATC
The “PBM E-score” value of the first is lower: -0.267 for the first, 0.233 for the second.

Going from ATGATCAT to ATGGGGTC, the “PBM E-score” value rises from 0.0197 to 0.0204.

First: TGAGGTAA
Second: CGTAAACC
The “PBM E-score” value of the first is higher: 0.208 for the first, 0.0296 for the second.

Going from TAGACCTA to CGTCAAGA, the “PBM E-score” value falls from -0.164 to -0.192.

Compared with GCGCGAGA, CTTCTTTC is lower in “PBM E-score” value: 0.0814 for the first, -0.0606 for the second.

Going from CTCGGATA to GCTTAAGC, the “PBM E-score” value falls from 0.0423 to -0.0648.

Going from CCTCTCGC to ATCGCAAT, the “PBM E-score” value rises from -0.107 to 0.175.

First: TAATATTA
Second: CCACATAA
The “PBM E-score” value of the first is higher: 0.368 for the first, 0.184 for the second.

Going from CGGCGCAA to ACGTCACT, the “PBM E-score” value falls from 0.0352 to 0.00589.

Going from ATGCCCGA to AGCATAGA, the “PBM E-score” value falls from -0.0291 to -0.0638.

First: CTCACTTC
Second: GATTTGGC
The “PBM E-score” value of the first is lower: -0.215 for the first, 0.0542 for the second.

First: CCCATTTA
Second: CGACGATC
The “PBM E-score” value of the first is lower: 0.0423 for the first, 0.112 for the second.

Going from CACAAGCC to AACAGTGT, the “PBM E-score” value rises from -0.211 to 0.0352.

Compared with CGCGACAA, AGCCACAT is lower in “PBM E-score” value: 0.217 for the first, 0.0988 for the second.

Going from ACTGTAAT to ACGCCGTG, the “PBM E-score” value falls from 0.199 to -0.00873.

Compared with GTACAGGA, ATTCTCAC is higher in “PBM E-score” value: -0.0557 for the first, 0.144 for the second.

Going from CTAGAGCA to ATCTACTC, the “PBM E-score” value rises from -0.0904 to 0.0361.

First: GCTATGCA
Second: ATCGGAGG
The “PBM E-score” value of the first is higher: -0.16 for the first, -0.216 for the second.

Going from ACATGCGG to AGTGGAGG, the “PBM E-score” value falls from -0.0675 to -0.0708.

First: AGAGACGC
Second: CGGTTGAA
The “PBM E-score” value of the first is lower: -0.00275 for the first, 0.112 for the second.

First: AAGAGCCG
Second: GGGCACGA
The “PBM E-score” value of the first is lower: -0.187 for the first, -0.144 for the second.

Going from CGGTCCAC to GCCCCGGC, the “PBM E-score” value rises from -0.344 to -0.277.
